According to article PMC5584137:

B1: ERR1 ligand-binding and activator function-2 domains (LB/AF2), yeast-2-hybrid prey clones (domain or fragment, UniProt P11474 254-423)
chain: LSDQMSVLQSVWMEVLVLGVAQRSLPLQDELAFAEDLVLDEEGARAAGLGELGAALLQLVRRLQALRLEREEYVLLKALALANSDSVHIEDAEAVEQLREALHEALLEYEAGRAGPGGGAERRRAGRLLLTLPLLRQTAGKVLAHFYGVKLEGKVPMHKLFLEMLEAMMD
B2: full-length GFP-ERR1 (protein, UniProt P11474 1-423)
chain: MSSQVVGIEPLYIKAEPASPDSPKGSSETETEPPVALAPGPAPTRCLPGHKEEEDGEGAGPGEQGGGKLVLSSLPKRLCLVCGDVASGYHYGVASCEACKAFFKRTIQGSIEYSCPASNECEITKRRRKACQACRFTKCLRVGMLKEGVRLDRVRGGRQKYKRRPEVDPLPFPGPFPAGPLAVAGGPRKTAAPVNALVSHLLVVEPEKLYAMPDPAGPDGHLPAVATLCDLFDREIVVTISWAKSIPGFSSLSLSDQMSVLQSVWMEVLVLGVAQRSLPLQDELAFAEDLVLDEEGARAAGLGELGAALLQLVRRLQALRLEREEYVLLKALALANSDSVHIEDAEAVEQLREALHEALLEYEAGRAGPGGGAERRRAGRLLLTLPLLRQTAGKVLAHFYGVKLEGKVPMHKLFLEMLEAMMD

Columns and labels:
[1] = biological target: KIF17 C-terminal tail domain, yeast-2-hybrid bait (human); assay: two-hybrid; yeast-2-hybrid screen of a library from normal colon epithelial cells (25 μg) with the C-terminal tail domain of KIF17 as bait; iterative rounds of screening
myc-KIF17-T^ΔNR (human) = assay: co-IP; lysates of transfected HEK293 cells one day after transfection; 50 mM HEPES pH 7.4, 150 mM NaCl, 1% Triton-X100 lysis buffer; overnight with anti-myc or anti-GFP antibody, Protein-G sepharose; immunoblot

Binder | binding [1] | binding (myc-KIF17-T^ΔNR (human))
B1 | binds | –
B2 | – | binds

No constants are given. Whether binding was seen depends on the method and setting. A result given as binding can be weak or reduced; the word gives no strength. For some assays here: In cells and extracts the contact can be indirect. For some assays here: Tags and fused reporters may be left off the sequences shown.
